Measured values: PubChem BioAssay AID2685 (National Center for Advancing Translational Sciences (NCATS), 2010)
The other results are listed elsewhere or left out. Further columns of the screen follow, without active or inactive calls. Most of these compounds were active or inconclusive in the main read-out, so they are no random draw. The note in brackets gives the kind of curve behind each potency; many fits are weak.

Test: qHTS Assay for Lipid Storage Modulators in Drosophila S3 Cells;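 for cell number change: cells counted by Cell Tracker Red CMTPX staining in the red channel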
Details: BODIPY lipid droplet fluorescence, 18-24 h; for cell number change: measured here: cell count max response, cells fed with added oleic acid
Summary of the method: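 Laser-scanning cytometry quantifies lipid droplet accumulation (500–530 nm total intensity; droplet/cell object ratio) in oleic acid-fed (400 uM added) Drosophila S3 cells treated with a concentration series. 20 uM Triacsin C defined 100% inhibition.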

[1] = measured here: cell number channel AC50, cells fed with added oleic acid
[2] = measured here: lipid fluorescence (Fed channel) AC50, cells fed with added oleic acid

Structure (SMILES)	cell number change	AC50 [1]	AC50 [2]
CCOP(=O)(OCC)c1nc(-c2ccccc2Cl)oc1N1CCOCC1	22.8%	–	–
O=C(C1COc2ccccc2O1)N1CCN(c2ccccn2)CC1 (stereo not given)	4.06%	–	–
CN(CC(=O)Nc1ccccc1Cl)CC(=O)Nc1sc2c(c1C(N)=O)CCC2	–	0.58 µM [falling, single point]	18.4 µM [rising, partial curve]
CN(NS(=O)(=O)c1ccccc1)c1nc2ccccc2nc1C(F)(F)F	82.7%	10.3 µM [rising, partial curve]	20.6 µM [rising, partial curve]
Cn1cccc1C(C#N)c1ccccc1C#N (stereo not given)	49.7%	16.4 µM [rising, single point]	–
CC(O)CNc1ncnc2cc(-c3ccc(F)cc3)sc12 (stereo not given)	7.66%	–	1.3 µM [rising, full curve]
N#Cc1ccccc1OCC(=O)OCC(=O)NC1CC1	-4.85%	–	1.16 µM [rising, full curve]
CCC(C)N1C(=O)/C(=C/c2c(NCCCOC(C)C)nc3c(C)cccn3c2=O)SC1=S (stereo not given)	-92.1%	14.6 µM [falling, partial curve]	0.517 µM [falling, full curve]
Cc1cc(C(=O)CSc2nnnn2-c2ccc(O)cc2)c(C)n1Cc1ccc2c(c1)OCO2	-14.9%	–	1.3 µM [rising, full curve, poor fit]
Cc1ccccc1-c1ccc(C(=O)Nc2cccc(F)c2)o1	3.59%	–	10.3 µM [rising, partial curve]
N#Cc1ccsc1NC(=O)CN1CCOCC1	-19.1%	–	0.461 µM [falling, single point]
CCc1nc2scc(-c3ccccc3)c2c(=O)n1N	–	3.26 µM [rising, partial curve]	0.411 µM [rising, partial curve, poor fit]
O=C(c1ccncc1)c1ccc([N+](=O)[O-])cc1	-15.1%	6.51 µM [falling, single point]	–
CC12OC1C1(O)CCCC1=CC2=O (stereo not given)	17.8%	–	29.1 µM [falling, single point]
C/C(CC(=O)Nc1ccccc1)=N\NC(=O)COc1ccc(C)cc1Br	-15.6%	–	–
Cc1ccc(S(C)(=O)=O)cc1C(=O)NC(C)C1CC2CCC1C2 (stereo not given)	-7.69%	–	–
COCC(=O)Nc1nnc(C2CCCCC2)s1	6.88%	–	29.1 µM [falling, single point]
COC(=O)C1(CCSC)NC(c2ccccc2OC)C2C(=O)N(C)C(=O)C21 (stereo not given)	-0.0698%	–	–
Cc1ccc(C(=O)N2CCN(C(=O)C3CCCO3)CC2)cc1 (stereo not given)	2.15%	2.91 µM [falling, single point]	–

As a short view, part of the list above.
Structure (SMILES)	cell number change	AC50 [1]	AC50 [2]
Cn1cccc1C(C#N)c1ccccc1C#N (stereo not given)	49.7%	16.4 µM [rising, single point]	–
CC(O)CNc1ncnc2cc(-c3ccc(F)cc3)sc12 (stereo not given)	7.66%	–	1.3 µM [rising, full curve]
